In PMC3460870:

biological target: T1, myc-Vangl1 (UniProt Q80Z96); assay: co-IP; myc-Vangl1 co-expressed with GFP-Vangl2, its truncations or GFP in T47D cells; immunoprecipitation with anti-myc antibody, western blot
T1 sequence: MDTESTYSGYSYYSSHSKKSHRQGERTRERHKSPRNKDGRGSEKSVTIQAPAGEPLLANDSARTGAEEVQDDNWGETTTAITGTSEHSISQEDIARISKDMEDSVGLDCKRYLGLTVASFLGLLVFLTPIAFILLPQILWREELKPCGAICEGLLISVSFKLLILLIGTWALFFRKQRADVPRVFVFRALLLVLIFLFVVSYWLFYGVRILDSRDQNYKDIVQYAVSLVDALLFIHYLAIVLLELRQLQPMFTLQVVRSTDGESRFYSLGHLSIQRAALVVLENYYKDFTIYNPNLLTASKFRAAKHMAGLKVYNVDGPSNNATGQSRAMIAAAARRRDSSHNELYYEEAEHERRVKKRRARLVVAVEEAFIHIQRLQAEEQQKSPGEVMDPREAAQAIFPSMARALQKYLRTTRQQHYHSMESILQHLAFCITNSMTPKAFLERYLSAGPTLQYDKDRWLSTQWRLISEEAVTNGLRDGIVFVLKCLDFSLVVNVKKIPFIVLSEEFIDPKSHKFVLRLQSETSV

| Substance | binding |
| --- | --- |
| GFP-Vangl2.ΔC (mouse) (domain or fragment) | binds |
| GFP-Vangl2.ΔN (mouse) (domain or fragment) | binds |
| GFP-Vangl2.ΔNΔC (mouse) (domain or fragment) | binds |

No constants are given. Whether binding was seen depends on the method and setting. Binding seen in cells or lysates may run through a third protein. A result given as binding can be weak or reduced; the word gives no strength. Where a sequence is shown, tags or fusion partners need not be part of it.
